The target of this experiment is PLATZ4-BD (Arabidopsis thaliana). In words: two-hybrid.

No constants are given. Whether binding was seen depends on the method and setting. A result given as binding can be weak or reduced; the word gives no strength.

The values below come from publication doi:10.1101/2021.10.06.463369.

B1: Di19-3 (protein, UniProt Q84J70 1-223)
chain: MDSDSWSDRLASATRRYQLAFPSRSDTFLGFEEIDGEEEFREEFACPFCSDYFDIVSLCCHIDEDHPMEAKNGVCPVCAVRVGVDMVAHITLQHANIFKMHRKRKPRRGGSYSTLSILRREFPDGNFQSLFGGSSCIVSSSSSSNVAADPLLSSFISPIADGFFTTESCISAETGPVKKTTIQCLPEQNAKKTSLSAEDHKQKLKRSEFVRELLSSTILDDSL
B1: the binding result is recorded as “binds”.
